Measurements reported in PubChem BioAssay AID602196 (INSERM, 2012).
The deposit covers about 23,000 reagents; below is a part drawn at random. 455 of them (2%) were called active. 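Active includes both protection and sensitisation; some change values fall well beyond the stated -50 to +50 range.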 Further read-outs or replicates are left out here. Not stated in the record: the amount of reagent.

- Test: 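Modifiers of cisplatin sensitivity in A549 cells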
- Cell system: human A549 lung cancer cells
- Knock-down reagent: siRNA pair against human genes
- Duration: 48 h transfection before cisplatin; time from cisplatin to read-out not stated
- Challenge: cisplatin at a dose killing half of control-siRNA cells; exact dose and duration not given
- Measurement: 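Shift in cisplatin death relative to control siRNA, from -50 (all cells die) to +50 (no cells die); siRNAs harmful on their own scored 0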
- Scale: two-siRNA summed score (-2 to +2): higher = both siRNAs protect from cisplatin killing; -2 means both sensitise
- Call rule: 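Each siRNA scores 0 if harmful alone by LDH or WST-1, otherwise +1 if it reduces and -1 if it increases cisplatin killing; a gene is active when both siRNAs agree (sum +2 or -2)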
- Calls: active = both siRNAs shift cisplatin killing the same way; inactive = no consistent shift, or siRNA harmful alone

Target gene	two-siRNA summed score (-2 to +2)	activity call
OR52A4P (olfactory receptor family 52 subfamily A member 4 pseudogene)	0	inactive
MRPS18C (mitochondrial ribosomal protein S18C)	0	inactive
IFRD2 (interferon related developmental regulator 2)	1	inactive
SCML1 (Scm polycomb group protein like 1)	0	inactive
MARCHF7 (membrane associated ring-CH-type finger 7)	0	inactive
PTDSS1 (phosphatidylserine synthase 1)	0	inactive
SERPINB13 (serpin family B member 13)	0	inactive
DNAH5 (dynein axonemal heavy chain 5)	0	inactive
SEMA6A (semaphorin 6A)	0	inactive
KCNB1 (potassium voltage-gated channel subfamily B member 1)	-2	active
OSTM1 (osteoclastogenesis associated transmembrane protein 1)	0	inactive
BCL2L14 (BCL2 like 14)	0	inactive
EEF1E1 (eukaryotic translation elongation factor 1 epsilon 1)	0	inactive
THBS1 (thrombospondin 1)	0	inactive
HRH1 (histamine receptor H1)	1	inactive
LOC441012	0	inactive
HSP90B1 (heat shock protein 90 beta family member 1)	0	inactive
PLCXD1	0	inactive
SLC75A1	0	inactive
SPIRE1 (spire type actin nucleation factor 1)	0	inactive
LINC02288 (long independently transcribed non-coding RNA 2288)	1	inactive
TFB2M (transcription factor B2, mitochondrial)	0	inactive
GNAI2P2 (G protein subunit alpha i2 pseudogene 2)	1	inactive
HTR1A (5-hydroxytryptamine receptor 1A)	0	inactive
NKX2-5 (NK2 homeobox 5)	1	inactive
DCK (deoxycytidine kinase)	-1	inactive
NNT (nicotinamide nucleotide transhydrogenase)	0	inactive
B3GAT1 (beta-1,3-glucuronyltransferase 1)	0	inactive
LOC441448	0	inactive
OR1L6 (olfactory receptor family 1 subfamily L member 6)	0	inactive
LOC442597	0	inactive
VGLL2 (vestigial like family member 2)	0	inactive
LOC440115	0	inactive
MCMBP (minichromosome maintenance complex binding protein)	0	inactive
LOC388898	0	inactive
CD200R1L (CD200 receptor 1 like)	0	inactive
ZNF582 (zinc finger protein 582)	0	inactive
MYL1 (myosin light chain 1)	0	inactive
NPHP1 (nephrocystin 1)	0	inactive

Quoted from the entries so far (7 entries):
Target gene	two-siRNA summed score (-2 to +2)	activity call
EEF1E1 (eukaryotic translation elongation factor 1 epsilon 1)	0	inactive
THBS1 (thrombospondin 1)	0	inactive
HRH1 (histamine receptor H1)	1	inactive
LOC441012	0	inactive
HSP90B1 (heat shock protein 90 beta family member 1)	0	inactive
PLCXD1	0	inactive
SLC75A1	0	inactive
